Measured values: patent publication US20090176817A1, “Method of Treatment of Diarrhea-Predominant Irritable Bowel Syndrome in a Subject” (priority 2005, published 2009)

System: purified human alpha-1 acid glycoprotein (AAG)
Type: in vitro ADME
Procedure: Protein binding was also evaluated in an in vitro study in human, mouse, rat, and dog plasma using equilibrium dialysis (12-14K molecular weight cut-off membrane). This study measured the binding of (^14C)-cilansetron in plasma at nominal concentrations (30, 90, and 300 ng/mL) which are much higher than those encountered in vivo in humans. This study also measured the binding of (^14C)-cilansetron to purified human serum albumin at cilansetron concentrations ranging from 30-3000 ng/mL and to purified human alpha-1 acid glycoprotein (AAG) at concentrations ranging from 30-10000 ng/mL.

Cc1nccn1C[C@H]1CCc2c(c3cccc4c3n2CCC4)C1=O [Cilansetron, (R)-(−)-4,5,6,8,9,10-hexahydro-10-[(2-methyl-1H-imidazol-1-yl)methyl]-11H-pyrido-[3,2,1-jk]-carbazol-11-one]
Apparent binding sites: 0.6
Affinity constant (Ka) (human, purified aag): 0.56 µM⁻¹
